These results are taken from PubChem BioAssay (EPA / NIEHS).

Chains of the proteins cited; added tags and fusions are not shown. Lines headed by an entry give the natural chain unless they say otherwise; changes in a name come on top.
UniProt Q01959, whole entry, looked up: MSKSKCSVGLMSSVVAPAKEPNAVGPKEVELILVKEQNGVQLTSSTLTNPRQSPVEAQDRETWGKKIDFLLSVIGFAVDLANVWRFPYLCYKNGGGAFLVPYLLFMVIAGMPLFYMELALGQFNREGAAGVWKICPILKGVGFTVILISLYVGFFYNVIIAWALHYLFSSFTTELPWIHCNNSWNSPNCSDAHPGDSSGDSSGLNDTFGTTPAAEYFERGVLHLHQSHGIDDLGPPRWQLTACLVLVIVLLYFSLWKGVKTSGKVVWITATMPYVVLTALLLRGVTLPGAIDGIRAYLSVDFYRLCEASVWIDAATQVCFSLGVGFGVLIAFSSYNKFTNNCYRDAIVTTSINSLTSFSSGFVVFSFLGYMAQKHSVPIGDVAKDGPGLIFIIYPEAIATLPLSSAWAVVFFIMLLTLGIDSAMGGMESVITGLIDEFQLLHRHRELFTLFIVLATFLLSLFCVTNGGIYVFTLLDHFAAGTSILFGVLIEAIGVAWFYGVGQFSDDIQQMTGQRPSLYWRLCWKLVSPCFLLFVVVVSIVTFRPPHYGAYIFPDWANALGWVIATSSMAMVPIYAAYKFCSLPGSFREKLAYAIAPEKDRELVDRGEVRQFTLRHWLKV
UniProt P19785, whole entry, looked up: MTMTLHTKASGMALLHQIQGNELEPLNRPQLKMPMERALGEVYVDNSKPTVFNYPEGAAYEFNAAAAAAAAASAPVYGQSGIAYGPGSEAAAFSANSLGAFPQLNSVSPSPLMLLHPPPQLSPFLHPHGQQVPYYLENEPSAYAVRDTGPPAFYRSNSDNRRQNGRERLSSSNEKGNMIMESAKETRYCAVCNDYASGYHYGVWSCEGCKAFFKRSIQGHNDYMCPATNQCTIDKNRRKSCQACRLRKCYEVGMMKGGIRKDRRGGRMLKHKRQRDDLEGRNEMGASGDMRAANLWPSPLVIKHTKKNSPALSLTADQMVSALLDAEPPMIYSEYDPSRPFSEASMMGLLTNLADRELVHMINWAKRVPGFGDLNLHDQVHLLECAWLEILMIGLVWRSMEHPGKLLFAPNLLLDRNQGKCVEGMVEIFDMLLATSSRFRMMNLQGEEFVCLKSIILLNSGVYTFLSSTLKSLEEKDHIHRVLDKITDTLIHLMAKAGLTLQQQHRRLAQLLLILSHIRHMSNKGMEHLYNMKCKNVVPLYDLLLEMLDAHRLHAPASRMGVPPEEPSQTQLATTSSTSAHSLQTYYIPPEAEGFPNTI
UniProt Q5TCH4: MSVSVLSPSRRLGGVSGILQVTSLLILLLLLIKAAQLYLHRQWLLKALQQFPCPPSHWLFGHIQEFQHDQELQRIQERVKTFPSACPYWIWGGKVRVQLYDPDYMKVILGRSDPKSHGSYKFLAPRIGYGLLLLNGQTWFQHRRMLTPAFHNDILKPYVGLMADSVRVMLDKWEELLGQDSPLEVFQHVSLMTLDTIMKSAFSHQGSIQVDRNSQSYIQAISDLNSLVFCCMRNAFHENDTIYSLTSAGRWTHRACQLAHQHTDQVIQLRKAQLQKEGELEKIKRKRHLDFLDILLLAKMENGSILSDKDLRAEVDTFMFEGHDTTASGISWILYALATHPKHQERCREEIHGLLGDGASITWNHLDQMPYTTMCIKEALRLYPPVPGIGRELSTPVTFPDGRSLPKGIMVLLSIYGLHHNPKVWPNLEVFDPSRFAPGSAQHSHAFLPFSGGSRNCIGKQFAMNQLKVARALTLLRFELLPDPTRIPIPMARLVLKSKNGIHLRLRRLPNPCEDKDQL
UniProt P22680: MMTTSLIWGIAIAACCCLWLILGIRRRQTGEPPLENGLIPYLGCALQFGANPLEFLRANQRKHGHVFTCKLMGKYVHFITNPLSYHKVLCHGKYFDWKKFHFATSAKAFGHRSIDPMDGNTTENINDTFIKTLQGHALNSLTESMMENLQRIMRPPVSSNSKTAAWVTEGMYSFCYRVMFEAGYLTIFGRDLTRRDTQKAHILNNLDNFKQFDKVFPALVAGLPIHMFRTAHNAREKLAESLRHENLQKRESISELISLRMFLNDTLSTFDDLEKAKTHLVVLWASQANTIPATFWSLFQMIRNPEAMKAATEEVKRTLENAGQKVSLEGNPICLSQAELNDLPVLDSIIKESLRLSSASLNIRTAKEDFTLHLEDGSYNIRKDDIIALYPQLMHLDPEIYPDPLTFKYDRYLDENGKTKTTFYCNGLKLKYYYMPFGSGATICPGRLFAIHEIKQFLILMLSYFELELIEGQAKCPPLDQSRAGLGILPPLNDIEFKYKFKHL
UniProt P19838: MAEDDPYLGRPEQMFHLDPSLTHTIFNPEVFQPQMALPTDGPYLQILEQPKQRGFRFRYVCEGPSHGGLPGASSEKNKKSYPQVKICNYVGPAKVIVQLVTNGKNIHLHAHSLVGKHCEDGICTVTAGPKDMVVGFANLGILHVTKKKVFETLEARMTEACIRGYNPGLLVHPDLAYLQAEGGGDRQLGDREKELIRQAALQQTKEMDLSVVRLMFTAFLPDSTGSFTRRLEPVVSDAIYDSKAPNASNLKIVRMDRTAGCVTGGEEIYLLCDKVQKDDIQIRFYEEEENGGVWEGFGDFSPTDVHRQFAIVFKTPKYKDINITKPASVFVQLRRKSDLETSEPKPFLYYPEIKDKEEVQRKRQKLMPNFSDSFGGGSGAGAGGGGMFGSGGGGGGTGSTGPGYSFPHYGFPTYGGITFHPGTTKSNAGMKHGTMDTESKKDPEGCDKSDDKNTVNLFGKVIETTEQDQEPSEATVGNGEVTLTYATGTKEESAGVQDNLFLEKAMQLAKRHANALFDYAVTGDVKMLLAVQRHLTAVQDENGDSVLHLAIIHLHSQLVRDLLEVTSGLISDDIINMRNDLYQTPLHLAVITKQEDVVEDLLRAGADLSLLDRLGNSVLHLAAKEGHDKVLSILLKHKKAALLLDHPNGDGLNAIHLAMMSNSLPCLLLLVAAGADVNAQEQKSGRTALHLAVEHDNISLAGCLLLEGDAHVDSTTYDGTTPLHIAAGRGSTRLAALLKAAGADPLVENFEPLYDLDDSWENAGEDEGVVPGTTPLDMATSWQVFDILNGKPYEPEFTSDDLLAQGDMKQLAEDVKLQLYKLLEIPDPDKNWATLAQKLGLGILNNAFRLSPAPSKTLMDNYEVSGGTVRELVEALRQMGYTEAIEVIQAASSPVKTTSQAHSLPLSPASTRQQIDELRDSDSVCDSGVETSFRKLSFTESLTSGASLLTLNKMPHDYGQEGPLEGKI
UniProt Q16236, whole entry, looked up: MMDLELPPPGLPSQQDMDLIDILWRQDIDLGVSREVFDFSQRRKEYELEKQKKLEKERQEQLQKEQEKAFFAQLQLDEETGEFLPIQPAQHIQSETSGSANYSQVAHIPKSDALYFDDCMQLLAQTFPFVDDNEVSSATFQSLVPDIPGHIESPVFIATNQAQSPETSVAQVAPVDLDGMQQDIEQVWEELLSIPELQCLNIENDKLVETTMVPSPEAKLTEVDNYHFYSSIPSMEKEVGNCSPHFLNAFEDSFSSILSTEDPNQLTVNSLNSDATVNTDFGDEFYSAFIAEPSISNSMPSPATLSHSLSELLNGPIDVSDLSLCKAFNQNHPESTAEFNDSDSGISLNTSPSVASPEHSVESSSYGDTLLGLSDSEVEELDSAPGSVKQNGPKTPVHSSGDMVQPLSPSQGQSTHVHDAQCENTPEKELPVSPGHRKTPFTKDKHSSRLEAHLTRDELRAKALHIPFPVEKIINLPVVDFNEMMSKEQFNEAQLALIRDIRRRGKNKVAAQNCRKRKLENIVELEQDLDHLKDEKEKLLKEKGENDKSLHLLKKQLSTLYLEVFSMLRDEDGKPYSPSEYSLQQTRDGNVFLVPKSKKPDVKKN
UniProt P03372, whole entry, looked up: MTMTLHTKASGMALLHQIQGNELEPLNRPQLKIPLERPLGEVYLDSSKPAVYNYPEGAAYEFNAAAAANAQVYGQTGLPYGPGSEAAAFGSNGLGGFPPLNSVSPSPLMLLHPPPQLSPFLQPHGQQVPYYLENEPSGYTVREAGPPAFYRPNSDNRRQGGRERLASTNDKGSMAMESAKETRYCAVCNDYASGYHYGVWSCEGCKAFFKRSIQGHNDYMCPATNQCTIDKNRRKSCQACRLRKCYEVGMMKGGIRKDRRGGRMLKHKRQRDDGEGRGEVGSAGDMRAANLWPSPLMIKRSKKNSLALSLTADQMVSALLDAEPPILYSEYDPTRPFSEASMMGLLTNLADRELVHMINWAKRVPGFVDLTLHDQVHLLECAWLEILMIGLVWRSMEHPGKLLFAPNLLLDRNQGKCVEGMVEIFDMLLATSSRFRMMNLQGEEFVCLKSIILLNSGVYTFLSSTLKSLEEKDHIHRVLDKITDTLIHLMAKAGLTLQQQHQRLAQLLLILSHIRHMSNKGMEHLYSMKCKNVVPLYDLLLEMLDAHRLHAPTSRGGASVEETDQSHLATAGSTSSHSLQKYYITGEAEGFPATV

For part of these data: What follows is the remainder of the data, with few or none of the hits. Records with an inconclusive call do not appear. The entries are a selection whose mix differs from that of the whole data set. The source made the active and inactive calls. Rule for the calls, unless noted: active = hit-call score of the fitted dose curve at least 0.9, where 1 is the maximum; inactive = score below 0.9.

Assay [1] addresses human Dopamine Transporter (DAT), SLC6A3 (gene 6531) (UniProt Q01959). The assay is described as follows: NVS_TR_hDAT: NovaScreen (NVS) Transporter Assay for human Dopamine Transporter (DAT) (AID 2283374; active = hit-call score of the fitted dose curve at least 0.9, where 1 is the maximum;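 note: activity means loss of bound radioligand signal relative to DMSO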). The essentials:
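Extracted human SLC6A3 protein incubated 1 h with radioligand and test chemical; bound fraction separated on filters and counted. Single 25 uM duplicate screen preceded concentration-response follow-up; positive and negative controls on every plate.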

Assay [2] concerns the target mouse Estrogen Receptor alpha (Era), Esr1 (gene 13982) (UniProt P19785). The assay is described as follows: NVS_NR_mERa: NovaScreen (NVS) Nuclear Receptor Binding Assay for mouse Estrogen Receptor alpha (Era) (AID 2283378; active = hit-call score of the fitted dose curve at least 0.9, where 1 is the maximum;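 note: hit means loss of bound radioligand signal relative to DMSO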). A digest of the protocol:
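Extracted mouse Era incubated with tritiated or iodinated radioligand plus test chemical, 18 h. Bound fraction separated on filters, counted by scintillation. DMSO = negative control/baseline; duplicate single-point at 25 uM, then concentration-response follow-up.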

Read-out in assay [3]: Cytochrome P450 (CYP1A1), CYP1A1 (gene 1543)
The assay is described as follows: LTEA_HepaRG_CYP1A1: Life Technologies and Expression Analysis (LTEA) Assay for Cytochrome P450 (CYP1A1) using HepaRG (AID 2283454). Particulars: actives raise or lower the signal; mRNA level, 48 h. The essentials:
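HepaRG, 48 h post-plating switched to serum-free induction medium; 8-pt conc-response (top 100 uM, half-log, 0.5% DMSO), duplicates, 48 h. Lysis in RLT, TaqMan qRT-PCR for CYP1A1; gain or loss vs DMSO.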

Read-out in assay [4]: Cytochrome P450 (CYP24A1), CYP24A1 (gene 1591)
The assay can be described thus: LTEA_HepaRG_CYP24A1: Life Technologies and Expression Analysis (LTEA) Assay for Cytochrome P450 (CYP24A1) using HepaRG (AID 2283478). The following applies: actives raise or lower the signal; mRNA level, 48 h. The essentials: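 HepaRG, 48 h chemical exposure, 8-pt half-log CRC from 100 uM, 0.5% DMSO vehicle, duplicates. Endpoint: CYP24A1 mRNA by Fluidigm TaqMan qRT-PCR, normalized ACTB/GAPDH/POLR2A; gain/loss fit vs DMSO.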

Read-out in assay [5]: Cytochrome P450 (CYP2B6), CYP2B6 (gene 1555)
The assay can be described thus: LTEA_HepaRG_CYP2B6: Life Technologies and Expression Analysis (LTEA) Assay for Cytochrome P450 (CYP2B6) using HepaRG (AID 2283481). The following applies: actives raise or lower the signal; mRNA level, 48 h. The essentials: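 HepaRG cells plated 48 h, switched to serum-free induction medium, then dosed 48 h (8 points, half-log from 100 uM, 0.5% DMSO). RNA isolated; CYP2B6 expression measured by qRT-PCR; gain or loss fitted relative to DMSO.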

Read-out in the next assay: CYP2C8 (gene 1558)
The assay is described as follows: LTEA_HepaRG_CYP2C8: Life Technologies and Expression Analysis (LTEA) Assay for CYP2C8 using HepaRG (AID 2283483). Particulars: actives raise or lower the signal; mRNA level, 48 h. The essentials:
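This is a transcriptional endpoint in HepaRG cultures: 48 h exposure, highest concentration 100 uM. CYP2C8 mRNA is quantified by TaqMan qRT-PCR.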

Read-out in another assay: CYP2E1 (gene 1571)
The assay is described as follows: LTEA_HepaRG_CYP2E1: Life Technologies and Expression Analysis (LTEA) Assay for CYP2E1 using HepaRG (AID 2283485). Particulars: actives raise or lower the signal; mRNA level, 48 h. The essentials:
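Readout is qRT-PCR of CYP2E1 mRNA, normalized to three housekeeping genes and fitted bidirectionally against 0.5% DMSO. HepaRG cells were dosed 48 h at eight concentrations, highest 100 uM with half-log dilutions.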

Read-out in a further assay: CYP4A11 (gene 1579)
The assay is described as follows: LTEA_HepaRG_CYP4A11: Life Technologies and Expression Analysis (LTEA) Assay for CYP4A11 using HepaRG (AID 2283486). The following applies: actives raise or lower the signal; mRNA level, 48 h. The essentials: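 HepaRG, 48 h chem exposure, 8 conc (100 uM top, half-log), 0.5% DMSO vehicle; qRT-PCR readout, housekeeping-gene normalized; bidirectional curve fit vs DMSO baseline.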

Read-out in assay [6]: Cytochrome P450 4A22 (Homo sapiens) (UniProt Q5TCH4)
The assay can be described thus: LTEA_HepaRG_CYP4A22: Life Technologies and Expression Analysis (LTEA) Assay for Cytochrome P450 4A22 (CYP4A22) using HepaRG (AID 2283495). Particulars: actives raise or lower the signal; mRNA level, 48 h. The essentials:
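Readout is CYP4A22 transcript induction or loss, quantified by qRT-PCR and normalized to ACTB, GAPDH and POLR2A. Human HepaRG cells receive test chemicals for 48 h at eight half-log concentrations from 100 uM in 0.5% DMSO.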

Read-out in assay [7]: Cytochrome P450 7A1 (Homo sapiens) (UniProt P22680)
The assay can be described thus: LTEA_HepaRG_CYP7A1: Life Technologies and Expression Analysis (LTEA) Assay for Cytochrome P450 7A1 (CYP7A1) using HepaRG (AID 2283496). The following applies: actives raise or lower the signal; mRNA level, 48 h. A digest of the protocol:
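HepaRG, 48 h exposure, 8-pt half-log series from 100 uM, 0.5% DMSO vehicle, duplicates. Readout: TaqMan qRT-PCR mRNA vs three housekeeping genes; bidirectional curve fit against DMSO baseline.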

Read-out in assay [8]: Nuclear factor NF-kappa-B p105 subunit (Homo sapiens) (UniProt P19838)
The assay is described as follows: LTEA_HepaRG_NFKB1: Life Technologies and Expression Analysis (LTEA) Assay for Nuclear Factor Kappa B Subunit 1 (NFKB1) using HepaRG (AID 2283521).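 Note: differentiated human HepaRG liver cells in serum-free induction medium; TaqMan qRT-PCR transcript normalised to ACTB GAPDH and POLR2A housekeeping genes.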 Particulars: actives raise or lower the signal; mRNA level, 48 h. A digest of the protocol: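 Human HepaRG cells receive eight half-log concentrations, highest 100 uM, for 48 h. NFKB1 expression is then quantified by qRT-PCR and analysed for up- or down-regulation relative to 0.5% DMSO vehicle.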

Read-out in assay [9]: Nuclear factor erythroid 2-related factor 2 (Homo sapiens) (UniProt Q16236)
The assay is described as follows: LTEA_HepaRG_NFE2L2: Life Technologies and Expression Analysis (LTEA) Assay for Nuclear factor erythroid 2-related factor 2 (NFE2L2) Transcription Factor using HepaRG (AID 2283527). Particulars: actives raise or lower the signal; mRNA level, 48 h. A digest of the protocol:
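Human liver HepaRG line treated in duplicate for 48 h with an eight-point series topping at 100 uM. Gene expression of NFE2L2 by qRT-PCR, bidirectionally fitted against the vehicle control.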

Assay [10] can be described thus: Tanguay_ZF_120hpf_BRAI_legacy: (Legacy) Oregon State University Tanguay Lab 120 Hour Post-fertilization zebrafish Assay for Brain Malformation (AID 2283641; active = hit-call score of the fitted dose curve at least 0.9, where 1 is the maximum). The essentials:
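Wild-type 5D larvae, static waterborne exposure to 120 hpf, 28C, 0.64% v/v DMSO. Brightfield scoring of brain defects, binary; dead embryos excluded. Positive ctrl 5uM trimethyltin chloride.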

A short description of assay [11]: STM_H9_OrnithineISnorm_perc: Stemina devTOX quickPredict H9 human embryonic stem cell (hESC)-based Assay for Ornithine (ORN) Metabolite Biomarker, Normalized (AID 2283712).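 Note: ornithine released into spent medium during last day measured by mass spectrometry.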 A digest of the protocol: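 Ornithine secreted by H9 hESCs after 72h compound treatment (daily media/compound renewal) was quantified in final-day media by UPLC-HRMS. Values are isotope-standard-normalized, expressed relative to 0.1% DMSO, fitted in positive direction.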

Assay [12] in a line: STM_H9_CystineISnorm_perc: Stemina devTOX quickPredict H9 human embryonic stem cell (hESC)-based Assay for Cystine (CYSS) Metabolite Biomarker, Normalized (AID 2283713). A digest of the protocol: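 Cells are held undifferentiated and treated for 72h, receiving fresh medium with compound every 24h. Cystine secreted during the final day is quantified by UPLC-HRMS against a labeled spike-in, then expressed relative to the DMSO vehicle median.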

The nature of assay [13]: CCTE_Deisenroth_AIME_384WELL_CTox_Active: Cytotoxicity Assessment (CTOX) in CCTE's 384-well Estrogen Receptor Transactivation Assay with AIME metabolic competence (metabolism positive), Deisenroth Lab (AID 2284037; active = hit-call score of the fitted dose curve at least 0.9, where 1 is the maximum;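 note: chemicals first conditioned 2 h by alginate-bound induced rat liver S9 before cells; activity means signal loss indicating cell death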). A digest of the protocol:
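VM7Luc4E2 breast cells received medium pre-incubated 2 h with chemical over alginate microspheres holding induced male Sprague Dawley rat liver S9; viability read 24 h later by protease-substrate fluorescence. Loss of signal, bidirectional fit, 0.002–200 uM.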

A short description of assay [14]: CCTE_Deisenroth_AIME_384WELL_CTox_Inactive: Cytotoxicity Assessment (CTOX) in CCTE's 384-well Estrogen Receptor Transactivation Assay without AIME metabolic competence (metabolism negative), Deisenroth Lab (AID 2284039; active = hit-call score of the fitted dose curve at least 0.9, where 1 is the maximum;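 note: cell viability via live-cell protease substrate cleaved to fluorescent probe; cells exposed 24 h to medium preincubated 2 h with alginate-water beads without S9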). A digest of the protocol: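 Fluorescence from a live-cell protease substrate, read after 24 h in VM7Luc4E2 cells, indicated viability. Test medium came from a 2 h AIME step without hepatic S9 (alginate-water microspheres); concentrations spanned 0.002 - 200 uM, single technical replicate per run.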

For assay [15], the target named is Estrogen receptor (Homo sapiens) (UniProt P03372). The assay is described as follows: CCTE_Deisenroth_AIME_384WELL_LUC_Shift: CCTE's 384-well Estrogen Receptor Transactivation Assay with AIME metabolic competence data shift (ERTA luciferase; difference in metabolism positive and negative), Deisenroth Lab (AID 2284041).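 Note: shift is response with S9 minus without S9 so positive means metabolism raised ER signal.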 The essentials:
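Here, parent compounds undergo 2 h phase I metabolism by PB/BNF-induced rat S9 before 24 h transactivation in VM7Luc4E2 cells; the curve models S9-positive minus S9-negative response over a 10-point series.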

In the case of `CCCCc1oc2ccccc2c1C(=O)c1cc(I)c(OCCN(CC)CC)c(I)c1`, the AC50 (as a rule, the midpoint of the concentration-response curve, whichever way the signal moves) in [1] was active: 6.5 µM; in [2], active: 10.1 µM; in assay [3], active: 16 µM; in assay [5], active: 60.4 µM; with CYP2C8 (gene 1558), active: 70.8 µM; with CYP2E1 (gene 1571) it was active: 47.5 µM. The AC50 in the assay with CYP4A11 (gene 1579) was active: 57.7 µM; in assay [6], active: 57.6 µM; in assay [7], active: 62.9 µM; in assay [9] it was active: 64.8 µM; in assay [11], active: 7.38 µM; in assay [13], active: 100 µM. The AC50 in assay [14] was active: 100 µM. Besides, the compound was classed as inactive in assay [4], in assay [8], in assay [10], in [12] and in [15].
